{"source": "patent US20060183692A1", "about": "“Use of low molecular weight thrombin inhibitors in cholesterol-lowering therapy” (priority 2003, published 2006)", "assay": "Lipid measurements in serum of patients in a Phase III clinical trial, ximelagatran vs warfarin", "format": "in vivo, human", "settings": "ximelagatran 36 mg bid (n=1704) vs warfarin INR 2-3 (n=1703), non-valvular atrial fibrillation patients, from second month, over entire 21 month period", "note": "For at least one compound, name, drawing or mass did not settle the structure."}
{"smiles": "CCOC(=O)CN[C@@H](C(=O)N1CC[C@H]1C(=O)NCc1ccc(/C(N)=N\\O)cc1)C1CCCCC1", "note": "[ximelagatran, EtO2C—CH2—(R)Cgl-(S)Aze-Pab-OH]", "values": [{"measurement": "mean difference in total cholesterol serum concentration", "setting": "FIG. 1", "value": "consistently significantly lower"}, {"measurement": "mean difference in total triglycerides serum concentration", "setting": "FIG. 2", "value": "consistently significantly lower"}, {"measurement": "mean difference in LDL (LDL-cholesterol) serum concentration", "setting": "FIG. 3", "value": "consistently significantly lower"}, {"measurement": "mean difference in HDL (HDL-cholesterol) serum concentration", "setting": "FIG. 4", "value": "consistently significantly higher"}]}
